# In PMC9248129:
# Sequences of proteins named here, by UniProt entry; tags and fusion partners are left off.
# UniProt O43791: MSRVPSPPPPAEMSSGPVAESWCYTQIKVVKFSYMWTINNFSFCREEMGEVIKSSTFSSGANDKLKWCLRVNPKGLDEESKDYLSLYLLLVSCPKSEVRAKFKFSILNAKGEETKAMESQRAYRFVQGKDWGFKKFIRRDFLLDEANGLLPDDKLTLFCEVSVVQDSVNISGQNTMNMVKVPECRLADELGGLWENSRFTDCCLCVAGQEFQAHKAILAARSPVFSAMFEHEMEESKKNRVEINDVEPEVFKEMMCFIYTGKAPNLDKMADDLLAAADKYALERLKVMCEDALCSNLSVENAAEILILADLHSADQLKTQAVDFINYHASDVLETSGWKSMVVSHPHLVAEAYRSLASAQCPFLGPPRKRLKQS
# UniProt Q13111: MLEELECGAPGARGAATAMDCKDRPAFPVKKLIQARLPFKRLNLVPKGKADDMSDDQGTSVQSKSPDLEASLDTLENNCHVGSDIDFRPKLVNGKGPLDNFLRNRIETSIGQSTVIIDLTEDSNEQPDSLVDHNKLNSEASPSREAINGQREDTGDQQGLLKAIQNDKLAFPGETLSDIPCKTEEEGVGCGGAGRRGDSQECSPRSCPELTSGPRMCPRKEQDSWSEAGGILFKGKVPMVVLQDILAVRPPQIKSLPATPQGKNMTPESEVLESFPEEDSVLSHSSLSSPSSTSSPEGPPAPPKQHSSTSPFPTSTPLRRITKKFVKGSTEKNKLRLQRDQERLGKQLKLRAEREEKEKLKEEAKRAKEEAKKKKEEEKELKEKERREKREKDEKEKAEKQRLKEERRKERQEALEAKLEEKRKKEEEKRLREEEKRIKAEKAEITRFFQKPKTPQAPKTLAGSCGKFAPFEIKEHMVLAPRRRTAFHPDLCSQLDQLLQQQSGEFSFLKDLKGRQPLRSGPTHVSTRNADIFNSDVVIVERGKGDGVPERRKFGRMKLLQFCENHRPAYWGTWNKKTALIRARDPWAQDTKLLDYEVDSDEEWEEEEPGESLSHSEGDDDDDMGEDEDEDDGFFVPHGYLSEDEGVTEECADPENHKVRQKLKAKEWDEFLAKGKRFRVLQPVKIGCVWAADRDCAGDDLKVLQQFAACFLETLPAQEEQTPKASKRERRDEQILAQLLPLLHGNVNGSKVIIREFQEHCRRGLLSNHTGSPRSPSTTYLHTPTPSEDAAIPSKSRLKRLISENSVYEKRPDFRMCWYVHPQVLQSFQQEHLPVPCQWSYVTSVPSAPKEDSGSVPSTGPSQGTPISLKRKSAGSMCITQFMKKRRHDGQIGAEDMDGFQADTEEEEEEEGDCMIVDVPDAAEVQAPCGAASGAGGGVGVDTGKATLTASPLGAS
# No constants are given. Whether binding was seen depends on the method and setting. In cells and extracts the contact can be indirect. Some results given as binding are weak or reduced against the parent protein; the word gives no strength.
# Target: Speckle-Type Poz Protein (SPOP) (human (endogenous in U2932)) (UniProt O43791)
# Assay: co-IP; U2932 cells, endogenous proteins; precipitated with IgG or anti-SPOP antibody, detected by western blotting
substance,measurement,value
CHAF1A (from UniProt Q13111 1-956),binding,binds
